In patent US20130005676A1 (UNIVERSITY OF ROCHESTER, priority 2009, published 2013):

Tested on: AMP deaminase
Assay: HPLC analysis of AMP degradation in muscle/subcutis sections from the Zusanli point
Type: biochemical, mice
Details: 1 mM AMP, 45 min
Procedure: The analysis of enzymatic degradation of purines was based on sections (400 μm) of skeletal muscles with overlying subcutis harvested from tissue in the Zusanli point. Each section per well was placed into a 6-well plate with 2 ml (in a phosphate-free buffer (in mM: 2 CaCl2, 120 NaCl, 5 KCL, 10 Glucose, 20 HEPES, pH=7.3) and bubble with 100% O2 containing 1 mM AMP with or without 500 μM deoxycoformycin (Tocris Bioscience, UK). The samples were collected from each well at 0 and 45 min and stored at −80° C. for HPLC analysis. The analyses were carried out on an ESA reverse-phase H584 HPLC system (ESA Inc., USA) and an ESA model 526 UV detector (ESA Inc.) as previously described (Cui et al., “The Organic Cation Transporter-3 is a Pivotal Modulator of Neurodegeneration in the Nigrostriatal Dopaminergic Pathway,” Proc. Nat'l. Acad. Sci. USA 106:8043-8048 (2009); Volonte et al., “Development of an HPLC Method for Determination of Metabolic Compounds in Myocardial Tissue,” J. Pharm. Biomed. Anal. 35:647-653 (2004), which are hereby incorporated by reference in their entirety). Chromatographic separation was achieved by using a Lichrospher® 100 RP-18 column (5 μm, 250 mm×3 mm; Merck, Germany). […] Eluted purines were detected at 260 nm, and the chromatographic peaks were integrated using CoulArray software.

Nc1ncnc2c1ncn2[C@@H]1O[C@H](COP(=O)(O)O)[C@@H](O)[C@H]1O [AMP] was tested, and the “exogenous added AMP deaminated to IMP” value was ~80% and the “exogenous added AMP dephosphorylated to adenosine” value was 20%.
